Assay results taken from US20030091568A1, “Inhibitors for the formation of soluble human CD23” (priority 2000, published 2003).
For at least one compound, name, drawing or mass did not settle the structure.

Experiments:
ADAM9 [1] = target: T1, ADAM9 (Mus musculus, UniProt Q61072); assay: CD23 shedding in CHO AA8 clone 3 cells with tet-regulated ADAM9 "On" (s-CD23 ELISA); type: cell-based, murine
T1 construct: expressed in transfected cells; host or cells: CHO AA8 Tet-Off cells (Clontech), clone 3, co-expressing human CD23b
T1 sequence (Q61072 206-845 limits assumed): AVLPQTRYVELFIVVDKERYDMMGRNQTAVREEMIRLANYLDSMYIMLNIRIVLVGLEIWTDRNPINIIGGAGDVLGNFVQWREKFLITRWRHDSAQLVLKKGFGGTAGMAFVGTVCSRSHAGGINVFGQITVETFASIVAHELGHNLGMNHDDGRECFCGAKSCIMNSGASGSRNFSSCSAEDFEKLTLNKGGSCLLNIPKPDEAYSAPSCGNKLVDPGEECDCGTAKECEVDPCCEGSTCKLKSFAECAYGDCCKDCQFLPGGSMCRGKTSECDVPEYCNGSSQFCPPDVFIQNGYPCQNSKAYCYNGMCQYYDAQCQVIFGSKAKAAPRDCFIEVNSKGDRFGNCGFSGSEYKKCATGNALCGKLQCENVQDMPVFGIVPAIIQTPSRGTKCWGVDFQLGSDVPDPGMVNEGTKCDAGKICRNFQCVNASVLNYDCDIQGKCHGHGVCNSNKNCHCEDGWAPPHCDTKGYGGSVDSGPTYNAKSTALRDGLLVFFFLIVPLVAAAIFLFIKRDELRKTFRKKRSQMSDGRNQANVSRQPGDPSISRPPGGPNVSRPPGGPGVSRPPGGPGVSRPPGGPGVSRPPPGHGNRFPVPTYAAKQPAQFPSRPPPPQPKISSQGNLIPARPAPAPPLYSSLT
Protocol: CHO AA8 cells (Clontech), which constitutively express human CD23b and a tet regulatable ADAM9 (clone 3, described above), were cultured in the absence of tetracycline (ADAM9 expression “On”) as well as the presence or absence of the metalloproteinase inhibitor batimastat (BB-94, British Biotechnology) as a broad spectrum MMP inhibitor, as well as various concentrations of either TIMP-1, TIMP-2 or TIMP-3. After 16 hours, aliquots of the respective culture supernatants were analysed by ELISA for the formation of s-CD23 (The Binding Site).
[…] cells were cultured in the presence (ADAM9 expression “Off”) or absence (ADAM9 expression “On”) of tetracylin (Tc). Under both conditions, the influence of batimastat (BB-94) on CD23 shedding was analyzed. The concentration of s-CD23 in the culture supernatants was determined by ELISA. In parallel, the produced s-CD23 cleavage products were analyzed by Western blot analyses (FIG. 4). Untransfected CHO AA8 cells (WT) were used as a negative control in the ELISA assays. In the absence of Tc (ADAM9 expression “On”), about 2-3 times the amount of s-CD23 was produced compared to cells kept in the presence of Tc (ADAM9 expression “Off”). […] The 33 kDa form of s-CD23 and, in minor amounts, the 25 kDa cleavage fragment were detected by Western blot analyses. […]

ADAM9 [2] = target: T2, ADAM9 (Homo sapiens, UniProt Q13443); assay: Shedding of CD23 from human B cell line P493-6 (c-myc "On", endogenous ADAM9); type: cell-based; conditions: P493-6, c-myc upregulated; 2 μM batimastat or 20 nM-1 μM TIMP; FIG. 6B
T2 construct: endogenous in cells
T2 sequence (Q13443 29-819): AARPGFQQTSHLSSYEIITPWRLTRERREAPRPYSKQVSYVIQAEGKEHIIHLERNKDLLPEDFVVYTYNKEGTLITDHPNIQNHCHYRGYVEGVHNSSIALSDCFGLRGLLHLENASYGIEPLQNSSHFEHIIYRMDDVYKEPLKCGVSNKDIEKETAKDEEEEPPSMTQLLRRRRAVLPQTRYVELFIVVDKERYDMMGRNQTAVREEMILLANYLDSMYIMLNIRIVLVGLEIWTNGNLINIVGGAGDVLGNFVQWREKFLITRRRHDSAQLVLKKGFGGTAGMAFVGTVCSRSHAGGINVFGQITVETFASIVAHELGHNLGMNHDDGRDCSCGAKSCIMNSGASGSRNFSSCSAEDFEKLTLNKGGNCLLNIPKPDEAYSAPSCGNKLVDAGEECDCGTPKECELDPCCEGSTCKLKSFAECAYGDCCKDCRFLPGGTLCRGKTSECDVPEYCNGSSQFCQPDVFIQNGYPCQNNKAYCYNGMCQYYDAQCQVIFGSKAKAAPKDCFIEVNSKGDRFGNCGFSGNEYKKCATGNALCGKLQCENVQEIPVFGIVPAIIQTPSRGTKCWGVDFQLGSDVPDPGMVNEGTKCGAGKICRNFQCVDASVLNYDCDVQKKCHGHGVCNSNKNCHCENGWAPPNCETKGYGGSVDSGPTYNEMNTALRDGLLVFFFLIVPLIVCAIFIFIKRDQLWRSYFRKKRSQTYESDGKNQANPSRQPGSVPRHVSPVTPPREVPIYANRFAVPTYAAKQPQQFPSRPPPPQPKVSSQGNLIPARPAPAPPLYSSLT
From the text: TIMP-1, -2 and -3 are known to inhibit all known secreted matrix metalloproteinases (MMPs), membrane-type matrix metalloproteinases (MT-MMPs), as well as ADAM10 (inhibited by TIMP-1 and TIMP-3) and ADAM17 (TACE, inhibited by TIMP-3 only). In contrast, it has been shown that membrane bound ADAM9 is not inhibited by either TIMP-1, -2 or -3 (see Example 3, FIG. 3). Using the human B cell line P493-6 with a tetracycline regulatable c-myc gene allowed the upregulation of endogeneous ADAM9 via upregulation of c-myc. […] The decrease in cell surface bound CD23 correlated with the increase in the s-CD23 concentration in the culture medium assayed by ELISA (CD23 ELISA kit, Becton Dickinson, and CD23 ELISA kit, the Binding Site). […]
To inhibit matrix metalloproteinase activity, aliquots of the cells studied (transfected CHO AA8, […]) were washed three-times in serum free medium and further cultured either in the presence (1 μM TC) or absence of TC for 24-48 h, either in the presence of 2 μM batimastat (BB-94, British Biotechnology) or 20 nM-1 μM of either TIMP-1, -2, or TIMP-3. […] Surface CD23 in the presence of either of the inhibitors was quantitated by FACS analyses using a FITC-labelled monoclonal antibody against human CD23 and compared to cells cultured in the absence of the respective inhibitor. […]

ADAM9 [3] = target: T3, ADAM9 (Mus musculus, UniProt Q61072); assay: Shedding of CD23 in transfected COS cells; type: cell-based, murine; conditions: transfected COS cells (summary statement also covering CHO and B cells)
T3 construct: expressed in transfected cells; host or cells: COS-7 cells cotransfected with human CD23b
T3 sequence (Q61072 30-845): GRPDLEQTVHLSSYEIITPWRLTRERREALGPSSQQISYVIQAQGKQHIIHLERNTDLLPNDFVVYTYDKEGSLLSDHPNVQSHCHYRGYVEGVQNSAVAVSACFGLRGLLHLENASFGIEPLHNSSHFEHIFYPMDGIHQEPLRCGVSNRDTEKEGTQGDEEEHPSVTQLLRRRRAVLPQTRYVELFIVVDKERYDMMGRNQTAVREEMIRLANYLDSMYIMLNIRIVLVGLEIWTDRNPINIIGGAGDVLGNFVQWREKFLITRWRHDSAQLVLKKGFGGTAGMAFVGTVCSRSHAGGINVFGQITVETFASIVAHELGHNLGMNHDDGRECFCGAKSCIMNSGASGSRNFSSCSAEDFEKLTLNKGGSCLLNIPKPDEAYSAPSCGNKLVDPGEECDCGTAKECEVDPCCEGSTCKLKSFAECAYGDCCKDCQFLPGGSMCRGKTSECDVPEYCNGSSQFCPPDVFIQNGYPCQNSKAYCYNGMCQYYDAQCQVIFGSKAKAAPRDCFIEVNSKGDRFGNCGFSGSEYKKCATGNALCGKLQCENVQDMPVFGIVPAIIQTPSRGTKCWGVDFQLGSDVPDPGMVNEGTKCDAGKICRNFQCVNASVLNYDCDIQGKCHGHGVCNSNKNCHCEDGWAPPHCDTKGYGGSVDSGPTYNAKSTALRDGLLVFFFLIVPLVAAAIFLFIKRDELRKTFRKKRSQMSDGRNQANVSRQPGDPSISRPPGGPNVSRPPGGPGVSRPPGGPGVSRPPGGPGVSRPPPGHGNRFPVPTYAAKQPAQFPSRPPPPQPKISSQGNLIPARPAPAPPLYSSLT

CD23 processing = conditions: Christie et al., 1997, Wheeler et al., 1998, Bailey et al.; cited from earlier work

For `CNC(=O)[C@H](Cc1ccccc1)NC(=O)[C@H](CC(C)C)[C@H](CSc1cccs1)C(=O)NO` [batimastat], the “block of proteolytic release of CD23 from the membrane (formation of s-CD23 by ELISA)” value (ADAM9 [1]; CHO AA8 clone 3, absence of tetracycline (ADAM9 "On"), 16 hours, 2 μM batimastat or 20 nM-1 μM TIMP, FIG. 3A) was “In contrast to batimastat, none of the TIMPs studied could block”, the “block of s-CD23 proteolytic release (ELISA, Western blot)” value (ADAM9 [1]; CHO clone 3, absence of Tc (ADAM9 "On"), FIG. 4) was “could be almost blocked” and the “block of increased shedding of membrane bound CD23 (decrease in surface number, FACS)” value (ADAM9 [2]) was “could be blocked”. For the same compound, the “block of shedding of CD23” value (ADAM9 [3]) was “can be blocked” and the “concentration inhibiting proteolytic processing of CD23” value (CD23 processing) was “nanomolar concentrations”.
